Source: PubChem BioAssay AID504834 (National Center for Advancing Translational Sciences (NCATS), 2011)
The campaign covered roughly 320,000 compounds. About 22,000 (6.9%) were called active. This list was built around the results that the source calls inconclusive (neither active nor inactive); the mix of calls is not that of the screen. Calls come from the whole dose curve; as a rule, active = well fitted inhibition curve with a large enough effect; inconclusive = small, poorly fitted or top-dose-only effect, or another doubt; inactive = no such curve, though single readings can be large or run the other way. Where the call is inconclusive, the potency comes from a doubtful curve fit.

Assay: Primary qHTS for delayed death inhibitors of the malarial parasite plastid, 96 hour incubation
Details: P. falciparum luciferase reporter growth; series mostly up to 28.7 µM
Summary of the method: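 Compounds incubated with erythrocytes infected by luciferase-expressing P. falciparum (2% hematocrit, 0.05% parasitemia final) for 96 hours, 37 C in 5% CO2. Growth inhibition scored as decreased luciferase luminescence.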
% is set by controls: 0 for no effect and ±100 for the full control effect; potency is the fitted concentration of half-maximal effect.

Row | Structure (SMILES) | Potency | activity change, negative = inhibition
1 | CCN(C(=O)C1CCN(c2nc(-c3ccc(OC)cc3)no2)CC1)c1ccc(OC)cc1 | inactive | 
2 | O=C(/C=C/c1ccco1)OCc1nnc(-c2ccccc2)o1 | inactive | 
3 | Cn1c(CCNC(=O)c2ccccc2F)nnc1SCC(=O)Nc1ccccc1F | inconclusive: 0.928 µM [inhibitor, partial curve, poor fit] | 
4 | CO/N=C(/C(=O)N[C@@H]1C(=O)N2C(C(=O)O)=C(CSc3cnns3)CS[C@H]12)c1csc(N)n1 | inactive | 
5 | CCOC(=O)c1ccc(-c2csc(NC(=O)CN3CCC(C)CC3)n2)cc1 | inconclusive: 13.1 µM [inhibitor, single point] | 
6 | COC(=O)Nc1ccc(OCc2ccccc2)cc1 | inactive | 
7 | COC(=O)c1cccc(C(=O)N2CCC(CO)(Cc3ccccc3Cl)CC2)c1 | inconclusive: 8.28 µM [inhibitor, single point] | 
8 | Cc1cccc(NC(=S)NC2CC3CCCC(C2)N3Cc2cccs2)c1 (stereo unspecified) | active: 10.4 µM | 
9 | NNC(=O)c1oc2nc(-c3ccco3)cc(-c3ccco3)c2c1N | inconclusive: 18.5 µM [inhibitor, single point] | 
10 | CC(=O)Nc1ccc(NC(=O)c2cc(-c3cc(C)cc(C)c3O)n[nH]2)cc1 | inconclusive: 1.47 µM [inhibitor, full curve] | 
11 | COC(=O)c1cn(-c2nc(C)c3c(n2)CCC3)nn1 |  | inactive: -37.5% [at 5.75 µM]
12 | CCN1CCN(c2ccc(S(=O)(=O)N3CCCCC3)cc2NC(=O)c2cccc(F)c2)CC1 | inconclusive: 14.7 µM [inhibitor, partial curve, poor fit] | 
13 | O=C(CCNC(=O)c1ccc(Br)cc1)NCc1ccccc1F | inconclusive: 18.5 µM [inhibitor, single point] | 
14 | CCN(CC)c1ccc(S(=O)(=O)N2CCCCC2)cc1NC(=O)C1CSC2(C)CCC(=O)N12 (stereo unspecified) | inconclusive: 14.7 µM [inhibitor, single point] | 
15 | Cn1c2ccccc2c(=O)c2ccc(C#CC3(N)CCCCC3)cc21 | inconclusive: 18.5 µM [inhibitor, single point] | 
16 | O=S(=O)(c1ccc(Br)cc1)N1CCN(c2ccccc2)CC1 | inactive | 
17 | Oc1ccc(N=Nc2ccccc2C(F)(F)F)c2cccnc12 | active: 0.928 µM | 
18 | CN(C)CCn1c2c(c(SCC(=O)Nc3ccccc3)nc1=O)CCCC2 | inconclusive: 11.7 µM [inhibitor, partial curve, poor fit] | 
19 | CCc1ccc(CN2CCC(n3nccc3NC(=O)c3ccccc3)CC2)o1 | inactive | 
20 | CCN(CC)CCCNC(=O)c1ccc(CS(=O)(=O)c2ccccc2OC)o1 | inconclusive: 4.15 µM [inhibitor, full curve] | 
21 | COc1ccc(C(CNC(=O)c2cc3ccccc3o2)N2CCCCC2)cc1 (stereo unspecified) | inactive | 
22 | NS(=O)(=O)c1ccc(CCNC(=O)c2ccc(Cn3c(=O)[nH]c4ccccc4c3=O)cc2)cc1 | inconclusive: 0.37 µM [inhibitor, partial curve, poor fit] | 

Whole records from above.
Cc1cccc(NC(=S)NC2CC3CCCC(C2)N3Cc2cccs2)c1 (stereo unspecified) as listed: Potency: active: 10.4 µM
CCOC(=O)c1ccc(-c2csc(NC(=O)CN3CCC(C)CC3)n2)cc1 as listed: Potency: inconclusive: 13.1 µM [inhibitor, single point]

Next part

Row | Structure (SMILES) | Potency | activity change, negative = inhibition
23 | COc1ccc(CNC(=O)CCCc2ccccc2)cc1 | inconclusive: 3.7 µM [inhibitor, full curve, poor fit] | 
24 | Cc1cccnc1NC(=O)c1ccc(S(=O)(=O)N2CC(C)OC(C)C2)cc1 (stereo unspecified) | inconclusive: 1.65 µM [inhibitor, partial curve, poor fit] | 
25 | S=C(NCC1CC1)N/N=C/c1ccccc1Cl | inconclusive: 13.1 µM [inhibitor, single point] | 
26 | Cc1c(C(=O)Oc2cc(N)n(S(C)(=O)=O)n2)cccc1[N+](=O)[O-] | inconclusive: 18.5 µM [inhibitor, single point] | 
27 | O=C1CN(C(=O)CN2CCOCC2)C(c2ccccc2)c2cc(Br)ccc2N1 (stereo unspecified) | inconclusive: 13.1 µM [inhibitor, partial curve, poor fit] | 
28 | CC(=O)Oc1ccc(C(=O)O)c(OC(C)=O)c1 | inconclusive: 2.62 µM [inhibitor, full curve, poor fit] | 
29 | Nc1nn2c(-c3ccccc3)cc(=O)[nH]c2c1N=Nc1ccc(O)cc1 | inconclusive: 0.0586 µM [inhibitor, full curve, poor fit] | 
30 | CCOC(=O)C1CCCN(C(=O)CCCn2nnnc2CN2CCC(C)CC2)C1 (stereo unspecified) | inconclusive: 11.7 µM [inhibitor, partial curve] | 
31 | COc1cccc(-c2sc3ccc(OC)cc3c2C#CC2(O)CCCCC2)c1 | inconclusive: 3.7 µM [inhibitor, single point] | 
32 | CN(CC(=O)Nc1cccc(F)c1)C(=O)c1cn(-c2ccccc2)nc1-c1ccc(Cl)cc1 | inconclusive: 14.7 µM [inhibitor, partial curve, poor fit] | 
33 | C=CCN1CC[C@]23c4c5ccc(O)c4O[C@H]2[C@@H](O)C=C[C@H]3[C@H]1C5 | inconclusive: 1.35 µM [inhibitor, partial curve, poor fit] | 
34 | Cn1c(N)c(C(=O)COC(=O)C(Cc2ccccc2)NC(=O)c2ccccc2)c(=O)n(C)c1=O (stereo unspecified) | inconclusive: 5.22 µM [inhibitor, partial curve, poor fit] | 
35 | COc1ccc(-c2csc(NC(=O)c3ccccc3C(=O)O)n2)cc1 | inactive | 
36 | Cc1cc(C)c(NS(=O)(=O)c2ccc(NC(=O)c3cccs3)cc2)c(C)c1 | inactive | 
37 | CCOC(=O)[C@H]1[C@H]2COc3ccc(Br)cc3[C@@H]2N2C(=O)CN(Cc3ccc(C)cc3)C(=O)[C@@]12C | inconclusive: 2.94 µM [inhibitor, single point] | 
38 | CCN(CC)C(=O)Nc1ccccc1C | inconclusive: 9.28 µM [inhibitor, partial curve, poor fit] | 
39 | CSCCC(NC(=O)c1ccccc1Br)C(=O)N1CCCC(C(F)(F)F)C1 (stereo unspecified) | inactive | 
40 | COc1cccc(N2CCN(S(=O)(=O)c3ccc(-c4cnc(C5CC5)o4)cc3)CC2)c1 | inconclusive: 11.7 µM [inhibitor, single point] | 
41 | COc1cccc(NC(=O)C2CCN(C(=O)[C@@H]3Cc4ccccc4CN3)CC2)c1 | inconclusive: 13.1 µM [inhibitor, single point] | 
42 | Cc1c(C(=O)OCC(=O)N(CC(C)C)c2c(N)n(Cc3ccccc3)c(=O)[nH]c2=O)oc2ccccc12 | inconclusive: 18.5 µM [inhibitor, single point] | 
43 | CCOC(=O)c1cc(-c2ccccc2)sc1N | inactive | 
44 | O=[N+]([O-])c1cccc(CP(=O)(c2ccccc2)c2ccccc2)c1 | inconclusive: 11.7 µM [inhibitor, single point] | 

Row | Structure (SMILES) | Potency | activity change, negative = inhibition
45 | CCC(=O)Nc1ccc(OCC2CCCO2)cc1 (stereo unspecified) | active: 11.7 µM | 
46 | COc1ccc(CCNC(=O)c2ccc(CS(=O)(=O)c3ccc(C)cc3)o2)cc1OC | inconclusive: 10.4 µM [inhibitor, partial curve, poor fit] | 
47 | CCn1cc(C(=O)OCC(=O)c2cc(C)n(-c3cccc(C(F)(F)F)c3)c2C)c(=O)c2ccc(C)nc21 | inconclusive: 4.15 µM [inhibitor, full curve, poor fit] | 
48 | Cc1cc(C)cc(Oc2coc3c(CN(C)C)c(O)ccc3c2=O)c1 | inconclusive: 9.28 µM [inhibitor, partial curve, poor fit] | 
49 | CCC(=O)NC(=S)Nc1ccc(NC(=O)c2cccc([N+](=O)[O-])c2C)cc1 | inactive | 
50 | O=C(O)c1ccc(CNS(=O)(=O)c2ccc(Oc3ccccc3Cl)cc2)cc1 | inconclusive: 18.5 µM [inhibitor, single point] | 
51 | COc1cc(OC)cc(-c2cc3nc(C)c(CCC(=O)O)c(C)n3n2)c1 | active: 9.28 µM | 
52 | CCSc1nnc(NC(=O)C(C)(C(F)(F)F)C(F)(F)F)s1 | inconclusive: 2.62 µM [inhibitor, full curve, poor fit] | 
53 | CCn1ncc(CN2CCN(Cc3ccc(OC)c(C)c3C)C(CCO)C2)c1C (stereo unspecified) | inconclusive: 11.7 µM [inhibitor, single point] | 
54 | CC(=O)N1CCN(C(=O)c2cc3c(s2)CCC(C)C3)CC1 (stereo unspecified) | inactive | 
55 | CCc1ccc(-n2c(C)nc3cc(C(=O)NCc4cccnc4)ccc32)cc1 | inconclusive: 14.7 µM [inhibitor, single point] | 
56 | Cn1c(COc2ccc(Cl)cc2)nnc1SCC(=O)NC1CCCC1 | inconclusive: 10.4 µM [inhibitor, single point] | 
57 | CN(C)S(=O)(=O)c1cccc(NC(=O)CSc2ncnc3ccccc23)c1 | inconclusive: 9.28 µM [inhibitor, partial curve, poor fit] | 
58 | CN(C)CCNC(=O)c1c(CSc2ccccc2)noc1C(=O)NCc1ccccc1 | active: 9.28 µM | 
59 | COc1cccc(CNC(=O)C2CCCN(C(=O)c3ccc(Cl)cc3)C2)c1 (stereo unspecified) | inconclusive: 18.5 µM [inhibitor, single point] | 
60 | O=C(NC(Cc1ccccc1)C(=O)O)C1CCN(S(=O)(=O)c2cccc(C(F)(F)F)c2)CC1 (stereo unspecified) | inactive | 
61 | CCC1CCCCN1C(=O)CSc1nc(C)cc(C)n1 (stereo unspecified) | inactive | 
62 | CCc1cc(=O)oc2cc(C)cc(OC(C)C(=O)NCCN3CCOCC3)c12 (stereo unspecified) | inconclusive: 18.5 µM [inhibitor, single point] | 
63 | Cc1cc2cccc(C)c2nc1SCC(=O)NCC1CCCO1 (stereo unspecified) | inconclusive: 11.7 µM [inhibitor, single point] | 
64 | CCOc1ccccc1CNC(=O)c1ccc(NC(=O)C2=CSCCO2)cc1 | inconclusive: 18.5 µM [inhibitor, single point] | 
65 | Cc1sc2ncnc(N3CCC(C(=O)Nc4ccc(F)cc4Cl)CC3)c2c1C | inconclusive: 18.5 µM [inhibitor, single point] | 
66 | COc1cccc2[nH]c3c(N4CCc5ccccc5C4)ncnc3c12 | inconclusive: 18.5 µM [inhibitor, single point] | 
